The subject of experiment [1] is ReNCell VM. Briefly: neuronal differentiation score (DCX+ cell fraction vs untreated, manual image score) (score (-3 to 3)); higher = more neuronal differentiation. The note with it: 2 uM, 2 weeks.
Experiment [2] has as its system ReNCell VM. Briefly: dopaminergic neuron differentiation score (TH+ cell fraction vs untreated, manual image score) (score (0 to 3)); higher = more TH+ dopaminergic neuron differentiation. Conditions: 2 uM, 4 weeks, BDNF 10 ng/ml + GDNF 10 ng/ml.

Structures can show the parent of a compound that is named as a salt. The list shows a part of the results. This data set is noisy: repeats of one test often differ as much as different tests do.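 Human fetal ventral-midbrain neural progenitor line ReNCell VM, differentiated without mitogens. Images stained for doublecortin (early neurons) or tyrosine hydroxylase (dopaminergic neurons) were scored by blinded raters against untreated wells (0 = no change). Repeats and both raters were averaged, and compounds averaging 2 or higher were picked as hits for retesting.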

As to `CC(C)OC(=O)C(C)(C)Oc1ccc(C(=O)c2ccc(Cl)cc2)cc1` [Fenofibrate], the neuronal differentiation score in the experiment on ReNCell VM [1] (library: LOPAC) is inactive: 1; with ReNCell VM [1] (library: Prestwick) it was inactive: 0. The “dopaminergic neuron differentiation score” value with ReNCell VM [2] (library: LOPAC) and in the experiment on ReNCell VM [2] (library: Prestwick) was inactive: 0 throughout.

As to `COc1ccccc1OCCNCC(O)COc1cccc2[nH]c3ccccc3c12` (stereo not given) [Carvedilol], the neuronal differentiation score with ReNCell VM [1] (library: Prestwick) and with ReNCell VM [1] (library: Tocriscreen) was inactive: 0 each time. The “dopaminergic neuron differentiation score” value in the experiment with ReNCell VM [2] (library: Prestwick) and with ReNCell VM [2] (library: Tocriscreen) was inactive: 0 each time.

`Cc1[nH]c(=O)c(C#N)cc1-c1ccncc1` [Milrinone]: the neuronal differentiation score in the experiment with ReNCell VM [1] (library: LOPAC) and in the experiment with ReNCell VM [1] (library: Prestwick) was inactive: 0 throughout. Besides, the “dopaminergic neuron differentiation score” value in the experiment with ReNCell VM [2] (library: LOPAC) was inactive: 0; with ReNCell VM [2] (library: Prestwick), inactive: 1.

Turning to `CN(C)[C@@H]1C(O)=C(C(N)=O)C(=O)[C@@]2(O)C(O)=C3C(=O)c4c(O)ccc(Cl)c4[C@@H](O)[C@H]3C[C@@H]12` [Demeclocycline hydrochloride], the neuronal differentiation score in the experiment on ReNCell VM [1] (library: LOPAC) and in the experiment on ReNCell VM [1] (library: Prestwick) was inactive: 0 throughout. Moreover, the “dopaminergic neuron differentiation score” value with ReNCell VM [2] (library: LOPAC) and with ReNCell VM [2] (library: Prestwick) was inactive: 0 in each case.

For `CNC1(C)C2CCC(C2)C1(C)C` (stereo not given) [Mecamylamine hydrochloride], the neuronal differentiation score in the experiment on ReNCell VM [1] (library: LOPAC) and in the experiment with ReNCell VM [1] (library: Prestwick) was inactive: 0 throughout. Moreover, the “dopaminergic neuron differentiation score” value in the experiment on ReNCell VM [2] (library: LOPAC) and in the experiment on ReNCell VM [2] (library: Prestwick) was inactive: 0 throughout.

In the case of `COc1ccccc1N1CCN(CCN2C(=O)CC3(CCCC3)CC2=O)CC1` [BMY 7378 dihydrochloride], the neuronal differentiation score in the experiment on ReNCell VM [1] (library: LOPAC) and with ReNCell VM [1] (library: Tocriscreen) was inactive: 0 throughout. Besides, the “dopaminergic neuron differentiation score” value in the experiment on ReNCell VM [2] (library: LOPAC) and with ReNCell VM [2] (library: Tocriscreen) was inactive: 0 each time.

For `Oc1ncnc2[nH]ncc12` [Allopurinol], the neuronal differentiation score in the experiment on ReNCell VM [1] (library: LOPAC) and in the experiment on ReNCell VM [1] (library: Prestwick) was inactive: 0 throughout. Further, the “dopaminergic neuron differentiation score” value with ReNCell VM [2] (library: LOPAC) and in the experiment on ReNCell VM [2] (library: Prestwick) was inactive: 0 in each case.

Take `CC(C)(C)NCC(O)c1cc(O)cc(O)c1` (stereo not given) [Terbutaline hemisulfate]: the neuronal differentiation score in the experiment on ReNCell VM [1] (library: LOPAC) and in the experiment with ReNCell VM [1] (library: Prestwick) was inactive: 0 throughout. Moreover, the “dopaminergic neuron differentiation score” value in the experiment on ReNCell VM [2] (library: LOPAC) and in the experiment on ReNCell VM [2] (library: Prestwick) was inactive: 0 throughout.

Consider `CN(C)CCOC(C)(c1ccccc1)c1ccccn1` (stereo not given) [Doxylamine succinate], for which the neuronal differentiation score in the experiment on ReNCell VM [1] (library: LOPAC) and in the experiment with ReNCell VM [1] (library: Prestwick) was inactive: 0 in each case. Moreover, the “dopaminergic neuron differentiation score” value in the experiment with ReNCell VM [2] (library: LOPAC) and with ReNCell VM [2] (library: Prestwick) was inactive: 0 in each case.

For `CN1CCN(C2=Nc3ccccc3Oc3ccc(Cl)cc32)CC1` [Loxapine succinate], the neuronal differentiation score in the experiment on ReNCell VM [1] (library: LOPAC) was inactive: 1; with ReNCell VM [1] (library: Prestwick), inactive: 0. In addition, the “dopaminergic neuron differentiation score” value in the experiment on ReNCell VM [2] (library: LOPAC) and with ReNCell VM [2] (library: Prestwick) was inactive: 0 each time.

For the compound `CN(C)CCCN1c2ccccc2CCc2ccccc21` [Imipramine hydrochloride], the neuronal differentiation score in the experiment on ReNCell VM [1] (library: LOPAC) and with ReNCell VM [1] (library: Prestwick) was inactive: 0 each time. Moreover, the “dopaminergic neuron differentiation score” value in the experiment with ReNCell VM [2] (library: LOPAC) and in the experiment with ReNCell VM [2] (library: Prestwick) was inactive: 0 each time.

With `O=c1[nH]c2cc(Cl)ccc2c(O)c1-c1cccc(Oc2ccccc2)c1`, the neuronal differentiation score in the experiment on ReNCell VM [1] (library: LOPAC) and in the experiment with ReNCell VM [1] (library: Tocriscreen) was inactive: 0 in each case. Also, the “dopaminergic neuron differentiation score” value in the experiment on ReNCell VM [2] (library: LOPAC) and in the experiment on ReNCell VM [2] (library: Tocriscreen) was inactive: 0 each time.

As for `O=C(O)C1=CCCNC1` [Guvacine hydrochloride], the neuronal differentiation score in the experiment with ReNCell VM [1] (library: LOPAC) and with ReNCell VM [1] (library: Tocriscreen) was inactive: 0 throughout. In addition, the “dopaminergic neuron differentiation score” value in the experiment on ReNCell VM [2] (library: LOPAC) and with ReNCell VM [2] (library: Tocriscreen) was inactive: 0 throughout.

With `FC(F)(F)c1cc(COC2CCCNC2c2ccccc2)cc(C(F)(F)F)c1` [L-733,060 hydrochloride], the neuronal differentiation score in the experiment on ReNCell VM [1] (library: LOPAC) and in the experiment on ReNCell VM [1] (library: Tocriscreen) was inactive: 0 in each case. In addition, the “dopaminergic neuron differentiation score” value with ReNCell VM [2] (library: LOPAC) and with ReNCell VM [2] (library: Tocriscreen) was inactive: 0 throughout.

Regarding `CCn1nc(C(=O)O)c(=O)c2cc3c(cc21)OCO3` [Cinoxacin], the neuronal differentiation score was inactive: 1 in the experiment on ReNCell VM [1] (library: LOPAC) and inactive: 0 in the experiment with ReNCell VM [1] (library: Prestwick). The figures for the “dopaminergic neuron differentiation score” value with ReNCell VM [2] (library: LOPAC) and in the experiment with ReNCell VM [2] (library: Prestwick) were active: 3 and inactive: 0, respectively.

Take `O=C(CCCN1CC=C(n2c(=O)[nH]c3ccccc32)CC1)c1ccc(F)cc1` [Droperidol]: the neuronal differentiation score with ReNCell VM [1] (library: LOPAC) and with ReNCell VM [1] (library: Prestwick) was inactive: 0 in each case. The “dopaminergic neuron differentiation score” value in the experiment with ReNCell VM [2] (library: LOPAC) and in the experiment with ReNCell VM [2] (library: Prestwick) was inactive: 0 each time.

On to `Cc1ccc2c(c1)c1c3n2CCNC3CCC1` (stereo not given) [Pirlindole mesylate], for which the neuronal differentiation score with ReNCell VM [1] (library: Prestwick) and in the experiment with ReNCell VM [1] (library: Tocriscreen) was inactive: 0 in each case. The “dopaminergic neuron differentiation score” value in the experiment on ReNCell VM [2] (library: Prestwick) and in the experiment on ReNCell VM [2] (library: Tocriscreen) was inactive: 0 each time.

Take `CC(C)Cn1cnc2c(N)nc3ccccc3c21` [Imiquimod]: the neuronal differentiation score in the experiment on ReNCell VM [1] (library: LOPAC) and with ReNCell VM [1] (library: Prestwick) was inactive: 0 in each case. Moreover, the “dopaminergic neuron differentiation score” value in the experiment with ReNCell VM [2] (library: LOPAC) and in the experiment on ReNCell VM [2] (library: Prestwick) was inactive: 0 each time.

On to `NS(=O)(=O)c1cc2c(cc1Cl)NC(C1CC3C=CC1C3)NS2(=O)=O` (stereo not given) [Cyclothiazide], for which the neuronal differentiation score with ReNCell VM [1] (library: LOPAC) and in the experiment with ReNCell VM [1] (library: Tocriscreen) was inactive: 0 each time. Moreover, the “dopaminergic neuron differentiation score” value in the experiment with ReNCell VM [2] (library: LOPAC) and in the experiment with ReNCell VM [2] (library: Tocriscreen) was inactive: 0 each time.

In the case of `COc1ccccc1N1CCN(CCCCNC(=O)c2ccc3ccccc3c2)CC1`, the neuronal differentiation score in the experiment on ReNCell VM [1] (library: LOPAC) and in the experiment with ReNCell VM [1] (library: Prestwick) was inactive: 0 throughout. The “dopaminergic neuron differentiation score” value in the experiment with ReNCell VM [2] (library: LOPAC) and in the experiment on ReNCell VM [2] (library: Prestwick) was inactive: 0 in each case.

Turning to `CCOC(=O)c1cnc2c(cnn2CC)c1NN=C(C)C` [Etazolate hydrochloride], the neuronal differentiation score was inactive: 1 in the experiment with ReNCell VM [1] (library: LOPAC) and inactive: 0 in the experiment on ReNCell VM [1] (library: Tocriscreen). The “dopaminergic neuron differentiation score” value in the experiment with ReNCell VM [2] (library: LOPAC) and in the experiment with ReNCell VM [2] (library: Tocriscreen) was inactive: 0 throughout.

`O=C(C1CCCCC1)N1CC(=O)N2CCc3ccccc3C2C1` (stereo not given) [Praziquantel]: the neuronal differentiation score in the experiment on ReNCell VM [1] (library: LOPAC) and in the experiment with ReNCell VM [1] (library: Prestwick) was inactive: 0 each time. The “dopaminergic neuron differentiation score” value in the experiment on ReNCell VM [2] (library: LOPAC) and in the experiment with ReNCell VM [2] (library: Prestwick) was inactive: 0 in each case.

As for `O=C(O)Cc1ccccc1Nc1c(Cl)cccc1Cl` [Diclofenac sodium], the neuronal differentiation score with ReNCell VM [1] (library: LOPAC) and with ReNCell VM [1] (library: Prestwick) was inactive: 0 each time. Moreover, the “dopaminergic neuron differentiation score” value in the experiment on ReNCell VM [2] (library: LOPAC) and in the experiment with ReNCell VM [2] (library: Prestwick) was inactive: 0 in each case.

Turning to `CC(=O)Oc1ccccc1C(=O)O` [Acetylsalicylic acid], the neuronal differentiation score with ReNCell VM [1] (library: LOPAC) and in the experiment with ReNCell VM [1] (library: Prestwick) was inactive: 0 in each case. Also, the “dopaminergic neuron differentiation score” value in the experiment on ReNCell VM [2] (library: LOPAC) and in the experiment with ReNCell VM [2] (library: Prestwick) was inactive: 0 each time.

In the case of `C[C@]12CC[C@@H]3c4ccc(O)cc4C[C@@H](CCCCCCCCC[S+]([O-])CCCC(F)(F)C(F)(F)F)[C@H]3[C@@H]1CC[C@@H]2O` (stereo not given in full), the neuronal differentiation score with ReNCell VM [1] (library: Spectrum) and in the experiment with ReNCell VM [1] (library: Tocriscreen) was inactive: 0 each time. Also, the “dopaminergic neuron differentiation score” value with ReNCell VM [2] (library: Spectrum) was inactive: 1; in the experiment on ReNCell VM [2] (library: Tocriscreen) it was inactive: 0.
